Measurements reported in PubChem BioAssay AID686938 (Drosophila RNAi Screening Center, 2013).
In all, the deposit lists about 23,000 reagents; shown is an unselected part of those with a known target gene and a result. Of all reagents, 75 (0.33%) were called active. 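Raw plate signals without normalisation; calls rest on plate z-scores that were not deposited; ratio present for only 364 wells.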 Unmarked entries are inactive. The numbers tell different reagents against one gene apart. Names joined by + are all predicted targets of the reagent. The record does not give: the dose of the treatment.

- Test: 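Knock-downs reducing store-operated calcium influx in Drosophila cells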 (primary screen)
- Cell system: Drosophila S2R+ cells
- Reagents: long dsRNA against Drosophila genes, about 0.25 µg dsRNA per well, roughly 10,000 cells
- Timing: 5 days of knock-down before the calcium assay
- Conditions: thapsigargin (SERCA pump blocker) to empty calcium stores; entry signal taken 4 min after adding it
- Detection: 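Duplicate raw fluo-4 intensities per well from a plate reader, at rest and four minutes after thapsigargin emptied calcium stores; entry-to-rest ratio filled for only some wells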
- Direction: calcium entry signal: higher = stronger calcium signal after store depletion; entry to resting ratio: higher = more calcium entry relative to resting level; resting calcium signal: higher = higher resting calcium signal
- Active means: 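Hit if the duplicate-averaged plate z-score for entry over resting signal is under −3; wells with weak total dye signal (Fmax z < −2) or more than 5 off-targets removed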
- Meaning of the calls: active = strongly reduced calcium entry; inactive = no strong reduction

| gene | dsRNA no. | calcium entry signal, replicate 1 (fluorescence units) | calcium entry signal, replicate 2 (fluorescence units) | entry to resting ratio | resting calcium signal, replicate 1 (fluorescence units) | resting calcium signal, replicate 2 (fluorescence units) |
| --- | --- | --- | --- | --- | --- | --- |
| CG16781 | 1 | 3.56e7 | 5.89e7 | 2.2 | 1.59e7 | 2.46e7 |
| Skp2 + CG14645 | 1 | 3.01e7 | 5.11e7 | – | 1.49e7 | 2.39e7 |
| Obp56d (Odorant-binding protein 56d) | 1 | 5.31e7 | 4.77e7 | – | 2.16e7 | 2.20e7 |
| CG42713 | 1 | 3.69e7 | 5.01e7 | – | 1.91e7 | 2.13e7 |
| betaNACtes2 (Nascent-associated complex beta-subunit-like, testis 2) | 1 | 2.91e7 | 3.64e7 | – | 1.59e7 | 1.73e7 |
| TBC1D23 (TBC1 domain family member 23) | 1 | 3.88e7 | 3.29e7 | – | 1.80e7 | 1.64e7 |
| CG43397 + CG12902 | 1 | 3.91e7 | 3.37e7 | – | 1.90e7 | 1.63e7 |
| tej (tejas) | 1 | 2.46e7 | 2.98e7 | – | 1.25e7 | 1.27e7 |
| MED1 (Mediator complex subunit 1) | 1 | 2.72e7 | 3.12e7 | – | 1.36e7 | 2.37e7 |
| CG34396 | 1 | 3.86e7 | 5.05e7 | – | 1.95e7 | 2.28e7 |
| CG34396 | 2 | 4.66e7 | 4.60e7 | – | 2.35e7 | 2.09e7 |
| CG3223 | 1 | 5.16e7 | 4.39e7 | – | 2.57e7 | 2.09e7 |
| CG31205 | 1 | 4.04e7 | 2.78e7 | – | 2.12e7 | 1.39e7 |
| CG33640 | 1 | 3.57e7 | 4.93e7 | – | 1.85e7 | 2.05e7 |
| CG18467 | 1 | 4.04e7 | 3.78e7 | – | 1.69e7 | 1.73e7 |
| CG11836 | 1 | 4.99e7 | 4.66e7 | – | 2.36e7 | 1.82e7 |
| Flo1 (Flotillin 1) | 1 | 2.81e7 | 2.14e7 | – | 1.17e7 | 1.13e7 |
| Est-Q (Esterase Q) | 1 | 2.59e7 | 3.89e7 | – | 1.25e7 | 2.59e7 |
| Pif1A (PFTAIRE-interacting factor 1A) | 1 | 3.16e7 | 4.60e7 | – | 1.59e7 | 2.28e7 |
| Pif1A (PFTAIRE-interacting factor 1A) | 2 | 5.11e7 | 3.83e7 | – | 2.50e7 | 1.94e7 |
| Ugt302C1 (UDP-glycosyltransferase family 302 member C1) | 1 | 4.40e7 | 4.41e7 | – | 1.81e7 | 2.07e7 |
| CG14190 | 1 | 5.39e7 | 4.51e7 | – | 2.65e7 | 1.85e7 |
| CG42496 + Ppcdc | 1 | 2.88e7 | 5.49e7 | – | 1.45e7 | 2.46e7 |
| CG6527 | 1 | 1.79e7 | 2.05e7 | – | 9.34e6 | 1.07e7 |
| cathD (cathepsin D) | 1 | 2.52e7 | 2.86e7 | – | 1.18e7 | 1.21e7 |
| lectin-46Cb | 1 | 4.45e7 | 4.20e7 | – | 2.04e7 | 1.61e7 |
| CG12744 | 1 | 4.03e7 | 3.70e7 | – | 1.78e7 | 1.78e7 |
| mio (missing oocyte) | 1 | 3.46e7 | – | – | 1.64e7 | – |
| mio (missing oocyte) | 2 | 2.79e7 | 4.08e7 | – | 1.44e7 | 2.36e7 |
| CG8661 | 1 | 3.76e7 | 3.51e7 | – | 2.02e7 | 1.52e7 |
| Nsun2 (NOP2-Sun domain family, member 2) | 1 | 4.40e7 | 4.00e7 | – | 2.11e7 | 1.86e7 |
| DIP1 (DISCO Interacting Protein 1) | 1 | 3.80e7 | 3.62e7 | – | 2.06e7 | 1.81e7 |
| CheB42b (Chemosensory protein B 42b) | 1 | 4.53e7 | 3.62e7 | – | 2.16e7 | 1.52e7 |
| Rae1 | 1 | 2.58e7 | – | – | 1.52e7 | – |
| CG31810 | 1 | 2.45e7 | 4.12e7 | – | 1.50e7 | 1.76e7 |
| CG1418 | 1 | 2.29e7 | 3.26e7 | – | 1.19e7 | 1.33e7 |
| CG8087 | 1 | 3.07e7 | 3.94e7 | – | 1.48e7 | 5.46e7 |
| frtz (fritz) | 1 | 3.19e7 | 4.87e7 | – | 1.60e7 | 2.02e7 |
| CG14947 | 1 | 3.44e7 | 2.24e7 | – | 1.47e7 | 1.05e7 |
| CG43174 (retired record) | 1 | 3.36e7 | 3.38e7 | – | 1.65e7 | 1.89e7 |
| CR31054 (pseudo) | 1 | 2.61e7 | 4.44e7 | – | 1.22e7 | 1.87e7 |
| CG43386 | 1 | 3.68e7 | 5.06e7 | – | 1.98e7 | 2.18e7 |
| SCCRO4 (Squamous cell carcinoma-related oncogene 4) | 1 | 2.20e7 | 4.01e7 | – | 1.04e7 | 1.81e7 |
| Dbp21E2 (DEAD box protein 21E2) | 1 | 4.37e7 | – | – | 2.28e7 | – |
| RpL15 (Ribosomal protein L15) | 1 | 1.10e7 | 9.09e6 | – | 9.37e6 | 6.70e6 |
| gprs | 1 | 5.09e7 | 5.48e7 | – | 2.21e7 | 2.58e7 |
| Fntb (Farnesyl transferase beta subunit) | 1 | 3.15e7 | 2.83e7 | – | 1.50e7 | 1.37e7 |
| CG32457 | 1 | 3.87e7 | 5.45e7 | – | 1.88e7 | 2.65e7 |
| CG32457 | 2 | 2.31e7 | 3.62e7 | – | 1.18e7 | 1.59e7 |
| pigs (pickled eggs) | 1 | 3.58e7 | 3.59e7 | – | 1.74e7 | 1.88e7 |
| pigs (pickled eggs) | 2 | 2.83e7 | 4.33e7 | – | 1.28e7 | 1.83e7 |
| pigs (pickled eggs) | 3 | 2.45e7 | 3.52e7 | – | 1.16e7 | 1.61e7 |
| Smg6 | 1 | 4.46e7 | 4.36e7 | – | 2.02e7 | 1.83e7 |
| Surf6 (Surfeit 6) | 1 | 3.26e7 | 2.43e7 | – | 1.67e7 | 1.27e7 |
| HDAC6 (Histone deacetylase 6) | 1 | 3.01e7 | 4.00e7 | – | 1.30e7 | 1.70e7 |
| NC2beta (Negative Cofactor 2beta) | 1 | 5.72e7 | – | – | 2.75e7 | – |
| Rnb (R and B) | 1 | 3.33e7 | 4.39e7 | – | 1.50e7 | 1.91e7 |
| Bsg (Basigin) | 1 | 3.32e7 | 3.83e7 | – | 1.88e7 | 1.79e7 |
| Bsg (Basigin) | 2 | 4.13e7 | 5.08e7 | – | 3.02e7 | 3.98e7 |

As entered above.
Value of CG16781 under “calcium entry signal, replicate 1 (fluorescence units)”: 3.56e7
CG1418, resting calcium signal, replicate 1 (fluorescence units) = 1.19e7
For “resting calcium signal, replicate 2 (fluorescence units)”, cathD (cathepsin D) reads 1.21e7
CG34396 #1, resting calcium signal, replicate 2 (fluorescence units) → 2.28e7
Result of CG14190 in “calcium entry signal, replicate 2 (fluorescence units)”: 4.51e7
